This is an account of results in the supplement of paper PMC9226226.

“And” between values parts separate entries of the source, which are not always exact repeats. Equal entries are not always repeated. The list shows a part of the results. Some well-known active drugs show little effect in this data set, so a weak value is uncertain.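 Prematurely aging human mesenchymal stem cells without the Werner syndrome gene were monitored by automated live-cell imaging over three biological repeats. The top twenty drugs for increasing growth versus vehicle moved forward; no fixed cutoff was specified.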

The test system of this experiment is Werner syndrome hMSCs (WRN-/-). As to the kind of experiment: relative cell density (fold change vs vehicle control); higher = more proliferation (geroprotective). As to conditions: concentration (umol/L): 1, 6 days.

Consider `[I-].[K+]`, for which the relative cell density (vehicle: DMSO) amounted to 1.25.
Still for that read-out and setting: in the case of `Cc1cc(-n2c(=O)[nH]c(=O)n(C)c2=O)ccc1Oc1ccc(SC(F)(F)F)cc1` it was 0.838; in that of `Cc1ccccc1N1C(=O)c2cc(S(N)(=O)=O)c(Cl)cc2NC1C` (stereo not given), 0.95; in that of `OCCOCCN1CCN(C(c2ccccc2)c2ccc(Cl)cc2)CC1` (stereo not given), 1.12.
For the setting “vehicle: DMSO”, `C=CC1=C(C(=O)O)N2C(=O)[C@@H](NC(=O)/C(=N\OCC(=O)O)c3csc(N)n3)[C@H]2SC1` gave a relative cell density of 1.18.
Same read-out and setting: the value for `O=C(NS(=O)(=O)c1ccc(Br)s1)c1ccc(Cl)cc1Cl` was 1.26.
For the compound `O=S(=O)(O)CCCS(=O)(=O)O`, the relative cell density (vehicle: Water) came to 0.917.
In turn, `Nc1cccc2c1CN(C1CCC(=O)NC1=O)C2=O` (stereo not given) returned a relative cell density (vehicle: DMSO) of 0.964.
On to `COc1ccc2[nH]c([S+]([O-])Cc3ncc(C)c(OC)c3C)nc2c1` (stereo not given), for which the relative cell density (vehicle: DMSO) came to 0.94.
Regarding `CNC(=O)[C@H](Cc1ccccc1)NC(=O)[C@H](CC(C)C)[C@H](CSc1cccs1)C(=O)NO`, the relative cell density (vehicle: DMSO) came out at 1.51.
Where the note is “vehicle: DMSO”, `Cn1nnnc1SCC1=C(C(=O)O)N2C(=O)[C@@H](NC(=O)[C@H](OC=O)c3ccccc3)[C@H]2SC1` had a relative cell density of 1.07.
`CCOC(=O)[C@H](CCc1ccccc1)N[C@@H](C)C(=O)N1CCC[C@H]1C(=O)O` came in with a relative cell density (vehicle: DMSO) of 1.22.
`Cc1noc(NS(=O)(=O)c2ccc(N)cc2)c1C` gave a relative cell density (vehicle: DMSO) of 1.01.
As for `CCc1cccc2c3c([nH]c12)C(CC)(CC(=O)O)OCC3` (stereo not given), the relative cell density (vehicle: DMSO) was found to be 0.995.
Under “vehicle: DMSO”, `CCC[C@H](NC(=O)[C@@H]1[C@H]2CCC[C@H]2CN1C(=O)[C@@H](NC(=O)[C@@H](NC(=O)c1cnccn1)C1CCCCC1)C(C)(C)C)C(=O)C(=O)NC1CC1` registered a relative cell density of 1.06.
`C[C@]12CC[C@@H]3c4ccc(O)cc4CC[C@H]3[C@@H]1C[C@@H](O)[C@@H]2O`: the relative cell density (vehicle: DMSO) came out at 1.19.
For the compound `CC1=C(CC(=O)O)c2cc(F)ccc2/C1=C\c1ccc([S+](C)[O-])cc1` (stereo not given), for the setting “vehicle: DMSO”, the relative cell density worked out at 1.3.
Still for that read-out and setting: the value for `C=CC(=O)N1CCC[C@@H](n2nc(-c3ccc(Oc4ccccc4)cc3)c3c(N)ncnc32)C1` was 1.15; that for `Cn1c([N+](=O)[O-])cnc1COC(N)=O` was 1.29.
Consider `CCN(c1cc(-c2ccc(CN3CCOCC3)cc2)cc(C(=O)NCc2c(C)cc(C)[nH]c2=O)c1C)C1CCOCC1`, for which the relative cell density (vehicle: Water) is 0.811.
In the case of `CCC1(c2c[nH]cn2)Cc2ccccc2C1`, the relative cell density (vehicle: DMSO) is 1.25 and 1.47.
For the compound `CC[C@@H]1/C=C(\C)C[C@H](C)C[C@H](OC)[C@H]2O[C@@](O)(C(=O)C(=O)N3CCCC[C@H]3C(=O)O[C@H](/C(C)=C/[C@@H]3CC[C@H](Cl)[C@H](OC)C3)[C@H](C)[C@@H](O)CC1=O)[C@H](C)C[C@@H]2OC`, the relative cell density (vehicle: DMSO) was 1.38.
Regarding `CCCCCCCCN=c1ccn(CCCCCCCCCCn2ccc(=NCCCCCCCC)cc2)cc1`, the relative cell density (vehicle: DMSO) worked out at 0.0213.
The compound `COc1ccc(C(=O)NCc2ccc(OCCN(C)C)cc2)cc1OC` gave a relative cell density (vehicle: DMSO) of 1.23.
For the compound `N=C(N)N/N=C/c1c(Cl)cccc1Cl`, the relative cell density (vehicle: DMSO) came out at 1.1.
Same read-out and setting: in the case of `Cc1ccc2c(Cl)cc(Cl)c(O)c2n1` it was 0.994; in that of `OC(CCN1CCCCC1)(c1ccccc1)C1CCCCC1` (stereo not given), 1.46; in that of `O=C(OCc1ccccc1)c1ccccc1`, 1.05.
As for `CN(C)CCOC(=O)COc1ccc(Cl)cc1`, the relative cell density (vehicle: DMSO) came to 1.18.
The same measure, in the same setting: the value for `Brc1c(NC2=NCCN2)ccc2nccnc12` was 1.06; that for `N#Cc1ccc(Oc2ccc3c(c2)COB3O)cc1` was 1.05.
For `CC(N)C12CC3CC(CC(C3)C1)C2` (stereo not given), the relative cell density (vehicle: DMSO) stood at 1.1.
For `C=C[C@@H]1C[C@]1(NC(=O)[C@@H]1C[C@@H](Oc2ncc(OC)c3ccc(Cl)cc23)CN1C(=O)[C@@H](NC(=O)OC(C)(C)C)C(C)(C)C)C(=O)NS(=O)(=O)C1CC1`, where the note is “vehicle: DMSO”, the relative cell density is 1.09.
Compound `CCOC(=O)c1c(C)n(C)c2ccc(O)cc12` registered a relative cell density (vehicle: DMSO) of 1.38.
On to `COc1ccc(C[C@@H]2c3cc(OC)c(OC)cc3CC[N@+]2(C)CCC(=O)OCCCCCOC(=O)CC[N@@+]2(C)CCc3cc(OC)c(OC)cc3[C@H]2Cc2ccc(OC)c(OC)c2)cc1OC`, for which the relative cell density (vehicle: DMSO) is 1.16.
Still for that read-out and setting: the value for `CN(CCOc1ccc(CC2SC(=O)NC2=O)cc1)c1ccccn1` (stereo not given) was 1.22 and 1.17 and 1.11; that for `COC(=O)[C@@H]1[C@H]2C[C@H]3c4[nH]c5ccccc5c4CCN3C[C@@H]2CC[C@@H]1O` was 1.16.
`CC1(C)NC(=O)N(c2ccc([N+](=O)[O-])c(C(F)(F)F)c2)C1=O` displayed a relative cell density (vehicle: DMSO) of 1.13.
Turning to `CCCCCCc1ccc(O)cc1O`, the relative cell density (vehicle: DMSO) is 1.45.
`O=C(/C=C\n1cnc(-c2cc(C(F)(F)F)cc(C(F)(F)F)c2)n1)NNc1cnccn1` returned a relative cell density (vehicle: DMSO) of 1.26.
Where the note is “vehicle: DMSO”, `Cc1nc(NC(=O)N2CCC[C@H]2C(N)=O)sc1-c1ccnc(C(C)(C)C(F)(F)F)c1` showed a relative cell density of 1.02.
Take `CCCCc1nc(C)c(CC(=S)N(C)C)c(=O)n1Cc1ccc(-c2ccccc2-c2nnn[nH]2)cc1`: the relative cell density (vehicle: DMSO) is 1.09.
Take `CC(C)NCC(O)COc1cccc2ccccc12` (stereo not given): the relative cell density (vehicle: DMSO) turned out to be 0.686.
`CCC1=C(C)CN(C(=O)NCCc2ccc(S(=O)(=O)NC(=O)N[C@H]3CC[C@H](C)CC3)cc2)C1=O` returned a relative cell density (vehicle: DMSO) of 1.07.
As to `COc1cc(Nc2nc3ccccc3nc2NS(=O)(=O)c2ccc(NC(=O)c3ccc(C)c(OC)c3)cc2)cc(OC)c1`, the relative cell density (vehicle: DMSO) turned out to be 1.05.
On to `CCS(=O)(=O)CCn1c([N+](=O)[O-])cnc1C`, for which, for the setting “vehicle: DMSO”, the relative cell density turned out to be 0.942.
As for `N#C[C@@H]1C[C@@H]2C[C@@H]2N1C(=O)[C@@H](N)C12CC3CC(CC(O)(C3)C1)C2`, for the setting “vehicle: DMSO”, the relative cell density was 1.48 and 1.03.
On the same count and under the same terms, in the case of `O=C1CCc2cc(OCCCCc3nnnn3C3CCCCC3)ccc2N1` it was 1.14.
`CCCCOc1cc(C(=O)NCCN(CC)CC)c2ccccc2n1` displayed a relative cell density (vehicle: DMSO) of 0.678.
For `CCN1CC(CCN2CCOCC2)C(c2ccccc2)(c2ccccc2)C1=O` (stereo not given), the relative cell density (vehicle: DMSO) came out at 1.21.
The compound `CC(=O)N[C@H]1[C@H]([C@H](O)[C@H](O)CO)OC(C(=O)O)=C[C@@H]1NC(=N)N` came in with a relative cell density (vehicle: Water) of 1.23.
For the compound `CCC(=O)O[C@]1(C(=O)CCl)[C@@H](C)C[C@H]2[C@@H]3C[C@H](F)C4=CC(=O)C=C[C@]4(C)[C@@]3(F)[C@@H](O)C[C@@]21C`, the relative cell density (vehicle: DMSO) is 1.07.
Consider `CNCCC(Oc1ccc(C(F)(F)F)cc1)c1ccccc1` (stereo not given), for which the relative cell density (vehicle: DMSO) was determined as 1.02.
Turning to `Cc1nc2n(c(=O)c1CCN1CCC(c3noc4cc(F)ccc34)CC1)CCCC2`, the relative cell density (vehicle: Water) amounted to 0.369.
On the same count and under the same terms, the value for `N=C(N)NCCC[C@H](N)C(=O)O` was 0.903.
For `C[C@@H](CN1CC(=O)NC(=O)C1)N1CC(=O)NC(=O)C1`, the relative cell density (vehicle: DMSO) turned out to be 0.879.
As to `CC(=O)Nc1ccc(CC(=O)O)cc1`, where the note is “vehicle: DMSO”, the relative cell density was found to be 1.22.
For `CC(=O)OCC(=O)[C@@]12N=C(C)O[C@@H]1C[C@H]1[C@@H]3CCC4=CC(=O)C=C[C@]4(C)[C@H]3[C@@H](O)C[C@@]12C`, the relative cell density (vehicle: DMSO) was 1.52.
Same read-out and setting: the value for `OCc1cc(C(O)CNCCCCCCOCCCCc2ccccc2)ccc1O` (stereo not given) was 1.13; that for `CCOc1ccccc1OCCN[C@H](C)Cc1ccc(OC)c(S(N)(=O)=O)c1` was 1.15.
